# Measured values as given in PubChem BioAssay AID2685 (National Center for Advancing Translational Sciences (NCATS), 2010).
# Some of the results follow. These are further read-outs of the screen, such as a control signal, another cell line or another target. No call is given for them. Compounds called inactive in the main read-out are mostly missing here. Potencies come from curve fits of mixed quality, noted in brackets.
# Test: qHTS Assay for Lipid Storage Modulators in Drosophila S3 Cells;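 as to cell number change: cells counted by Cell Tracker Red CMTPX staining in the red channel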
# Settings: BODIPY lipid droplet fluorescence, 18-24 h; for cell number change: measured here: cell count max response, cells fed with added oleic acid
# In short: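 Drosophila S3 cells got compounds at several concentrations plus oleic acid (400 uM solution). Laser-scanning cytometry with 488 nm excitation read lipid droplets at 500-530 nm and cells at 575-640 nm. Percent activity was relative to 20 uM Triacsin C.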
# [1] = measured here: cell number channel AC50, cells fed with added oleic acid
# [2] = measured here: lipid fluorescence (Fed channel) AC50, cells fed with added oleic acid
Structure (SMILES),cell number change [%],AC50 [1],AC50 [2]
Cc1cccc(OCCNC(=S)NC(=O)c2cncc(Br)c2)c1,30,"4.11 µM [rising, full curve, poor fit]",
Cc1cccc(C(=O)NCCc2csc(C)n2)c1,58.2,"16.4 µM [rising, single point]",
CC(C)(C)NC(=O)C(c1ccc(O)cc1)N(C(=O)CCC(=O)Nc1nccs1)c1ccccc1F (configuration not stated),-7.61,,"0.651 µM [falling, full curve]"
Cc1ccccc1NC(=O)CSc1nc(=O)n(CCN2CCOCC2)c2c1CCCC2,3.11,"0.731 µM [falling, full curve, poor fit]","1.3 µM [falling, full curve]"
O=C(NCc1ccccc1F)c1ccc2c(c1)OCO2,,"0.0326 µM [rising, full curve, poor fit]","5.8 µM [rising, partial curve, poor fit]"
Cc1ccnc(OC(C(=O)O)C(OCCc2ccccc2)(c2ccccc2)c2ccccc2)n1 (configuration not stated),-31.5,"20.6 µM [falling, single point]","8.2 µM [falling, partial curve]"
COc1cccc(OCc2cc(C(=O)N3CCN(C(=O)c4ccco4)CC3)no2)c1,,,"1.46 µM [rising, partial curve]"
COc1cccc(C2CC(c3ccccc3)n3ncnc3N2)c1 (configuration not stated),46.5,"20.6 µM [rising, single point]","23.1 µM [rising, single point]"
O=C(COC(=O)Cc1ccsc1)NC1CCCCCC1,-2.71,,"29.1 µM [falling, single point]"
O=S(=O)(Nc1cc(S(=O)(=O)N2CCOCC2)ccc1N1CCOCC1)c1ccc2c(c1)OCCO2,-38,"0.517 µM [falling, partial curve, poor fit]",
COc1ccc(N2C(=O)CCC(C(=O)N3CCCCCC3)C2c2ccc(OC)c(OC)c2)cc1 (configuration not stated),-15.6,,"6.51 µM [rising, partial curve, poor fit]"
COCCOC(=O)c1[nH]c2c(c1C)C(=O)CC(c1ccc(N(C)C)cc1)C2 (configuration not stated),-7.75,"1.3 µM [rising, partial curve]","0.82 µM [rising, partial curve]"
CCOC(=O)c1ccc(NC2c3ccccc3C(=O)N2c2cccnc2)cc1 (configuration not stated),0.179,,"6.51 µM [rising, single point]"
Cc1ccc2cc(C)c(SCC(=O)NCC3CCCO3)nc2c1 (configuration not stated),13.5,,
COC(=O)[C@H](Cc1ccccc1)NC(=O)[C@@]1(C)C[C@@H]1[C@@H](NC(=O)OCc1ccccc1)c1ccccc1,-22.3,,"5.8 µM [falling, partial curve]"

# Two successive records from above:
Structure (SMILES),cell number change [%],AC50 [1],AC50 [2]
COc1cccc(C2CC(c3ccccc3)n3ncnc3N2)c1 (configuration not stated),46.5,"20.6 µM [rising, single point]","23.1 µM [rising, single point]"
O=C(COC(=O)Cc1ccsc1)NC1CCCCCC1,-2.71,,"29.1 µM [falling, single point]"
